Reference: the supplement of paper PMC10849652
The other results are listed elsewhere or left out.

The chains behind the UniProt entries cited, without tags or fusion partners. Where a name states a change or a piece, a line headed by the entry shows the natural chain unless it says otherwise.
UniProt P56192: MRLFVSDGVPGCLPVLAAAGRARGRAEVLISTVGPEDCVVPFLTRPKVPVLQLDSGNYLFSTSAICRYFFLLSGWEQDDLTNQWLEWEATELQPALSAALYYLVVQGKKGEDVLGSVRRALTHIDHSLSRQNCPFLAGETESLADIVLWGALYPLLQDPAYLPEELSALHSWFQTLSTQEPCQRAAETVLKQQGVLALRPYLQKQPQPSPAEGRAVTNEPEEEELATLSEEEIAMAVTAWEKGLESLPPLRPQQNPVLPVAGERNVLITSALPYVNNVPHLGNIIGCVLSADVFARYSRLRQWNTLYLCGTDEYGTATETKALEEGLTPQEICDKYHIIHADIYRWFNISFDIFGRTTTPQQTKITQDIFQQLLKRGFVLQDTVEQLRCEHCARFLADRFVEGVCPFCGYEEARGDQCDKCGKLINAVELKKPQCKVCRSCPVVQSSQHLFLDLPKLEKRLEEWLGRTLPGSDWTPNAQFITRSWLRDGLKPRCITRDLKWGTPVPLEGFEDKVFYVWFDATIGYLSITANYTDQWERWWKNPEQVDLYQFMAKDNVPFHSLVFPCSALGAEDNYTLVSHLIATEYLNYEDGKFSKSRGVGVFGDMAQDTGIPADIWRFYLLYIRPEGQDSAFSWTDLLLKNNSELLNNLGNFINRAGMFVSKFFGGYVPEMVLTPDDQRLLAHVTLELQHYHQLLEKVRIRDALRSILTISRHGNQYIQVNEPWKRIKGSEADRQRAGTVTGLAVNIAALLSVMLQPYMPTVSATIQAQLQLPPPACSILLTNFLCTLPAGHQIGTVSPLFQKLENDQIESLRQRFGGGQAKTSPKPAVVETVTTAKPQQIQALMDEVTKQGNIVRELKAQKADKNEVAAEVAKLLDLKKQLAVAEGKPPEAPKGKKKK
UniProt P31153, whole entry, looked up: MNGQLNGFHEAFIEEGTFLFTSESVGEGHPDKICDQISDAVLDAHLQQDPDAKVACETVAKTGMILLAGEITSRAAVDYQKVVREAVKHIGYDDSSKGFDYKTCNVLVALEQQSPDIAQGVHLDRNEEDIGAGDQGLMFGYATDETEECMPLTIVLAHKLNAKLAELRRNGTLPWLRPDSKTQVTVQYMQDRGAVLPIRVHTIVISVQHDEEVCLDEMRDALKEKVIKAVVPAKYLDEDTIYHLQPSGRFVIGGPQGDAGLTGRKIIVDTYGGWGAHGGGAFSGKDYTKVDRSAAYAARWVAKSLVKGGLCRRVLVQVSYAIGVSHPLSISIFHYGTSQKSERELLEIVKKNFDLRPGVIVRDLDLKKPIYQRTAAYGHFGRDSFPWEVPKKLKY
UniProt Q96S90: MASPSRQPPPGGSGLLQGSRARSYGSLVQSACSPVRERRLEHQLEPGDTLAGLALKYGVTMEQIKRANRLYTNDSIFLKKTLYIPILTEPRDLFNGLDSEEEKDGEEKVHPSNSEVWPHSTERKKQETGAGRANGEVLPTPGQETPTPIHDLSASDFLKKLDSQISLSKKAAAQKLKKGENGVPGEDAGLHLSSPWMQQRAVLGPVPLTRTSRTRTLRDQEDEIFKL
UniProt Q8WVR3: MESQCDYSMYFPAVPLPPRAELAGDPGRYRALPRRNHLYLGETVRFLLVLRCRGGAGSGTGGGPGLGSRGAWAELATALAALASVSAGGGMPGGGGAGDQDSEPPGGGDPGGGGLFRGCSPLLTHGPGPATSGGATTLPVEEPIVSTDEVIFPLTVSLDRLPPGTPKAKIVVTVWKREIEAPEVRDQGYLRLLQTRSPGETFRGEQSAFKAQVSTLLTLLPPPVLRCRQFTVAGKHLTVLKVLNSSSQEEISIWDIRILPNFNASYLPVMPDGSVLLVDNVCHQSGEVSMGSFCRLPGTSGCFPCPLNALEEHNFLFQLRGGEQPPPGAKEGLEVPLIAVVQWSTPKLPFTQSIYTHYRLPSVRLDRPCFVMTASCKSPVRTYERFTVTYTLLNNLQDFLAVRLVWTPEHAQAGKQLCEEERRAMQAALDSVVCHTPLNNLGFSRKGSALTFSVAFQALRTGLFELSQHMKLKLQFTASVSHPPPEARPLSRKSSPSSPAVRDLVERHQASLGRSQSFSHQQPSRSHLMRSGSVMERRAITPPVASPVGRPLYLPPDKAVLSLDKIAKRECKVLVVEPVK
UniProt Q9NTJ4: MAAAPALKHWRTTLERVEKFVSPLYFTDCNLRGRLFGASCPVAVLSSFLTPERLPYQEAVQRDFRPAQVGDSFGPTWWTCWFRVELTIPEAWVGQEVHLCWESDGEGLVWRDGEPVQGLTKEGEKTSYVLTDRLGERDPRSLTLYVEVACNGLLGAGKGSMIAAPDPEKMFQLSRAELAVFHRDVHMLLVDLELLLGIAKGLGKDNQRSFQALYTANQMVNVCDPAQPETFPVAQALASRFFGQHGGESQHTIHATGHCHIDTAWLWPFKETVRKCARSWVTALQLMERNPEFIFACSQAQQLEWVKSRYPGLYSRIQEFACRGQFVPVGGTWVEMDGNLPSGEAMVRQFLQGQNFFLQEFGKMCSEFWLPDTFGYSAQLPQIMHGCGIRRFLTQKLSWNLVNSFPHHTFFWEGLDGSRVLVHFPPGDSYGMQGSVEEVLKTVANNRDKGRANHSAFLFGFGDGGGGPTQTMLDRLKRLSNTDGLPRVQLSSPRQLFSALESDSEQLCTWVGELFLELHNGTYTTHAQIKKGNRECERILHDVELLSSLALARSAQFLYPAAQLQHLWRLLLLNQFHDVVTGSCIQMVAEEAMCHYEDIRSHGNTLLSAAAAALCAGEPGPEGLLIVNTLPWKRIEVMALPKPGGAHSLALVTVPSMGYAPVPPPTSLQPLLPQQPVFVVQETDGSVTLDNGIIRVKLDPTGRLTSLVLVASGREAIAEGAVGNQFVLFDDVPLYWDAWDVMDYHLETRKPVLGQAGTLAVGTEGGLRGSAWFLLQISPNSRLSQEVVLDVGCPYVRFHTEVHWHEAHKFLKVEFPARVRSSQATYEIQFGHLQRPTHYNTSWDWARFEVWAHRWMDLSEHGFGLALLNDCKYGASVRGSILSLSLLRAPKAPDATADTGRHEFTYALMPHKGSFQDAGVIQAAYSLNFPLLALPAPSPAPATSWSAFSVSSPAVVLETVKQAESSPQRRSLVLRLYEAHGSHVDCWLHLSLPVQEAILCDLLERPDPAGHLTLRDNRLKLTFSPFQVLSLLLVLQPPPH
UniProt P49641: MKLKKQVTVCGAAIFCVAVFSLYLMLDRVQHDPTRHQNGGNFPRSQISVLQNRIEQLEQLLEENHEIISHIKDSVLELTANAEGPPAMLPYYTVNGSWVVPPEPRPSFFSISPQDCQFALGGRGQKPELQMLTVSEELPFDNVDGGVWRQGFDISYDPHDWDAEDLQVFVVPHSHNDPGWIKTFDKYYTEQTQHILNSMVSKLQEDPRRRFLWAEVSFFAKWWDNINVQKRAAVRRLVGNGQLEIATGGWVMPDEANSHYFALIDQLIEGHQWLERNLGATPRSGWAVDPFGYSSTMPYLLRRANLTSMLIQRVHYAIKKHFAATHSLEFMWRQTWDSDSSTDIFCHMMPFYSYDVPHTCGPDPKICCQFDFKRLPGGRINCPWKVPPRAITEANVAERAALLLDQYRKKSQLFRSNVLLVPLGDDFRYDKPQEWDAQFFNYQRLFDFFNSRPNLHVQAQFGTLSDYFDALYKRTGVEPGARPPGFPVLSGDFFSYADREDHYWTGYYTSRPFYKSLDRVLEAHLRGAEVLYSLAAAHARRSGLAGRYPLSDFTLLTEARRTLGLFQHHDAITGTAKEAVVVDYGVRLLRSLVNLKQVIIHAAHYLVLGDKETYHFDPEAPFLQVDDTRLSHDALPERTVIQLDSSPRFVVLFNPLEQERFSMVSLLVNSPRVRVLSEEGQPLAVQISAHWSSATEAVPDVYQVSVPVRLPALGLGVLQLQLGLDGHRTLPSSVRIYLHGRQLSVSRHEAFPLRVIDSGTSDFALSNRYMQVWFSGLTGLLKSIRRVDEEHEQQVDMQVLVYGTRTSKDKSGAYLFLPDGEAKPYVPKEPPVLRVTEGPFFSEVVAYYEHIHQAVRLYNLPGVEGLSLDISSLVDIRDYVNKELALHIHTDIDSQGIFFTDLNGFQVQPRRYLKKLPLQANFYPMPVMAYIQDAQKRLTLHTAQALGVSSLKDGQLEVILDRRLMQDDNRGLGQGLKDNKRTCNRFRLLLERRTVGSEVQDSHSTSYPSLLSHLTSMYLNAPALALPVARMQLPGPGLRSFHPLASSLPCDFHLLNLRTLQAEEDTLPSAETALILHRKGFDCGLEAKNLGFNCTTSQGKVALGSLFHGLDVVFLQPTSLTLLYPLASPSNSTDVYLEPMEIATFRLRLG
UniProt P45983: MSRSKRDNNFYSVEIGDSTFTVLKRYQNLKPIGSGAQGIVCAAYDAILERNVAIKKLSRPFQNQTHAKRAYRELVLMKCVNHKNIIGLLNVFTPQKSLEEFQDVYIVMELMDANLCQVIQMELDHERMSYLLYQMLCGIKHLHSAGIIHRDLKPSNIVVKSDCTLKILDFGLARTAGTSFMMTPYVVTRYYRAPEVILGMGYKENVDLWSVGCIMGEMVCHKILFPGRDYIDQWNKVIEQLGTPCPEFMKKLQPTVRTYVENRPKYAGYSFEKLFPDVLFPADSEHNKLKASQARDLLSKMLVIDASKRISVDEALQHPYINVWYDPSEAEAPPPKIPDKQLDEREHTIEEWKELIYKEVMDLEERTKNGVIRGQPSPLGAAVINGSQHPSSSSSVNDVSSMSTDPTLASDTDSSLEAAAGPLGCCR
UniProt Q9UI95, whole entry, looked up: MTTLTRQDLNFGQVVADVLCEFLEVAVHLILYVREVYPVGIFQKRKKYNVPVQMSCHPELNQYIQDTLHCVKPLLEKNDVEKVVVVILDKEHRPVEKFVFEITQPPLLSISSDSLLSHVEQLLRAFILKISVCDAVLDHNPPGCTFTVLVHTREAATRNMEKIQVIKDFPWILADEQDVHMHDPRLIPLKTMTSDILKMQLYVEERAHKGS
UniProt P29966: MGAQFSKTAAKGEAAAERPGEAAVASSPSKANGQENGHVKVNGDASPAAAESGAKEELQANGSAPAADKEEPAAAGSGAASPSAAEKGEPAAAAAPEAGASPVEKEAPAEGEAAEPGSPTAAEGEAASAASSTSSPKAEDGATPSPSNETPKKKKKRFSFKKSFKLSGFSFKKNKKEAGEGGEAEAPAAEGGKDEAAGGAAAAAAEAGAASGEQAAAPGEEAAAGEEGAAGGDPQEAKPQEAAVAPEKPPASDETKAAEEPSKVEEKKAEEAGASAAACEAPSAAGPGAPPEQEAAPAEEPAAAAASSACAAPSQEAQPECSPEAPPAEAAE
UniProt Q9H063: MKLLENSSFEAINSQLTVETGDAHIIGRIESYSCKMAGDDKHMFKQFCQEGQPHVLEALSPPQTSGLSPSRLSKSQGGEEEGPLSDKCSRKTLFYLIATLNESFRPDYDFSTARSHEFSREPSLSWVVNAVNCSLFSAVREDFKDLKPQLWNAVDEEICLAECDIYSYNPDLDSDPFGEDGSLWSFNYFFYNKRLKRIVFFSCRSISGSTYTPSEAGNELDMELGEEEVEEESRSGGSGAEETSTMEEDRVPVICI
UniProt P28482, whole entry, looked up: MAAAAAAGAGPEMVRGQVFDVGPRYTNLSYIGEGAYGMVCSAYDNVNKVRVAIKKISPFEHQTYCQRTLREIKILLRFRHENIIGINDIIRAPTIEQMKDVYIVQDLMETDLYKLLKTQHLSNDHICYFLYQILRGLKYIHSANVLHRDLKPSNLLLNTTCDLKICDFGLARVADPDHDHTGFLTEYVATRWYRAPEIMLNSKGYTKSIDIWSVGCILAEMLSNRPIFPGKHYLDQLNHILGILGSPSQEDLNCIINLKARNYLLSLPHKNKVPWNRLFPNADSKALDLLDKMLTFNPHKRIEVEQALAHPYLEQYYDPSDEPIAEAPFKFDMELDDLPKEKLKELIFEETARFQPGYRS

The targets below were run with CC(C)(C)Cn1c(N)nc2ccc(-c3[nH]c(C(C)(C)C)nc3-c3ccc(F)cc3)nc21 [ralimetinib] (assay: log2 fold change, soluble protein after heating vs DMSO (PISA); higher = thermal stabilisation; K562 lysate, 10 uM; active = over 0.2 and 3.5 SD of the protein, either way, in both replicates (recomputed)).
Method in brief: (§1)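 Dounce homogenisation of K562 pellets in PBS pH 7.4 with 1 mM MgCl2 produced a crude extract, used at 1 mg/mL protein. Exposure to 10 μM compound lasted 30 min, and aliquots were then heated for 3 min across 48°C-58°C, pooled and brought to 0.5% NP-40 at 4°C. The supernatant after 21,000xg for 90 min was quantified by TMTpro 16plex LC-MS/MS with channel sums equalised. Duplicate values are given as log-two fold change in thermal stability relative to solvent controls.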

log2 fold change, inactive:
MAP1S (UniProt Q66K74) 0.004
MACROD1 (UniProt Q9BQ69) 0.098
MAIP1 (UniProt Q8WWC4) 0.068
MAP3K20 isoform 2 (UniProt Q9NYL2) -0.082
LYAR (UniProt Q9NX58) -0.011
MARS (UniProt P56192) 0.04
MAP7D1 (UniProt Q3KQU3) -0.022
MAP2K2 (UniProt P36507) -0.052
LTN1 isoform 3 (UniProt O94822) 0.016
MAT2A (UniProt P31153) 0.014
LYSMD1 (UniProt Q96S90) -0.023
MAPRE2 (UniProt Q15555) 0.023
MAP3K7 (UniProt O43318) 0
LYN (UniProt P07948) -0.068
MAP11 (UniProt Q8WVR3) 0.037
MAP2K4 isoform 2 (UniProt P45985) -0.029
MAN2C1 isoform 4 (UniProt Q9NTJ4) 0.076
MAN2A2 (UniProt P49641) 0.052
LZTFL1 (UniProt Q9NQ48) 0.028
MAPK8 isoform 3 (UniProt P45983) 0.294
MACF1 isoform 3 (UniProt Q9UPN3) 0.006
MAN2A1 (UniProt Q16706) 0.043
MAN2B1 (UniProt O00754) -0.041
MAP2K1 (UniProt Q02750) -0.021
MAP4 isoform 5 (UniProt P27816) -0.1
MAD2L2 (UniProt Q9UI95) 0.103
MAP3K20 (UniProt Q9NYL2) 0.009
MARCKS (UniProt P29966) 0
MAP4 (UniProt E7EVA0) -0.038
MAF1 (UniProt Q9H063) 0.107
MAPK1 (UniProt P28482) -0.066

log2 fold change, active:
MAPK14 (UniProt Q16539) 1.16

What follows are targets tested with CC(C)(O)CC(=O)NCCn1ccc2ncnc(Nc3ccc(Oc4cccc(C(F)(F)F)c4)c(Cl)c3)c21 in the same assay as above.
Method in brief: as §1

log2 fold change, inactive:
MAP1S (UniProt Q66K74) -0.041
MACROD1 (UniProt Q9BQ69) -0.024
MAPK14 (UniProt Q16539) -0.008
MAIP1 (UniProt Q8WWC4) 0.021
MAP3K20 isoform 2 (UniProt Q9NYL2) 0.016
LYAR (UniProt Q9NX58) 0.016
MARS (UniProt P56192) -0.01
MAP7D1 (UniProt Q3KQU3) 0.027
MAP2K2 (UniProt P36507) 0.173
LTN1 isoform 3 (UniProt O94822) -0.066
MAT2A (UniProt P31153) -0.023
LYSMD1 (UniProt Q96S90) -0.006
MAPRE2 (UniProt Q15555) 0.01
MAP3K7 (UniProt O43318) 0.012
LYN (UniProt P07948) 0.068
MAP11 (UniProt Q8WVR3) -0.008
MAP2K4 isoform 2 (UniProt P45985) -0.015
MAN2C1 isoform 4 (UniProt Q9NTJ4) 0.043
MAN2A2 (UniProt P49641) -0.013
LZTFL1 (UniProt Q9NQ48) 0.019
MAPK8 isoform 3 (UniProt P45983) 0.025
MACF1 isoform 3 (UniProt Q9UPN3) -0.012
MAN2A1 (UniProt Q16706) 0.017
MAN2B1 (UniProt O00754) -0.006
MAP2K1 (UniProt Q02750) 0.075
MAP4 isoform 5 (UniProt P27816) -0.166
MAD2L2 (UniProt Q9UI95) -0.08
MAP3K20 (UniProt Q9NYL2) -0.01
MARCKS (UniProt P29966) 0.028
MAP4 (UniProt E7EVA0) -0.185
MAF1 (UniProt Q9H063) 0.011
MAPK1 (UniProt P28482) 0.012

Each target was assayed with CC(C)C1=C2N=C(C=C(N2N=C1)NCC3=CC=CC=C3)NCCCCCCN in the same assay as above.
Method in brief: as §1

log2 fold change, inactive:
MAP1S (UniProt Q66K74) -0.005
MACROD1 (UniProt Q9BQ69) -0.008
MAPK14 (UniProt Q16539) -0.06
MAIP1 (UniProt Q8WWC4) 0.026
MAP3K20 isoform 2 (UniProt Q9NYL2) -0.029
LYAR (UniProt Q9NX58) 0.004
MARS (UniProt P56192) 0.03
MAP7D1 (UniProt Q3KQU3) -0.001
MAP2K2 (UniProt P36507) -0.007
LTN1 isoform 3 (UniProt O94822) 0.079
MAT2A (UniProt P31153) -0.02
LYSMD1 (UniProt Q96S90) 0.003
MAPRE2 (UniProt Q15555) 0.113
MAP3K7 (UniProt O43318) 0.022
LYN (UniProt P07948) 0
MAP11 (UniProt Q8WVR3) -0.005
MAP2K4 isoform 2 (UniProt P45985) 0.042
MAN2C1 isoform 4 (UniProt Q9NTJ4) -0.032
MAN2A2 (UniProt P49641) 0.02
LZTFL1 (UniProt Q9NQ48) -0.008
MAPK8 isoform 3 (UniProt P45983) 0.035
MACF1 isoform 3 (UniProt Q9UPN3) 0
MAN2A1 (UniProt Q16706) 0.016
MAN2B1 (UniProt O00754) -0.023
MAP2K1 (UniProt Q02750) 0
MAP4 isoform 5 (UniProt P27816) 0.03
MAD2L2 (UniProt Q9UI95) -0.03
MAP3K20 (UniProt Q9NYL2) 0.004
MARCKS (UniProt P29966) -0.031
MAP4 (UniProt E7EVA0) 0.036
MAF1 (UniProt Q9H063) -0.006
MAPK1 (UniProt P28482) -0.029
